The list shows a part of the results.
Tests used:
Assay in all cases: log2 fold change, soluble protein after heating vs DMSO (PISA); higher = thermal stabilisation; K562 cells, 10 uM, 30 min; active = over 0.2 and 3.5 SD of the protein, either way, in both replicates (recomputed)
[1] = compound: CC[C@@H]1C(=O)N(C)c2cnc(Nc3ccc(C(=O)NC4CCN(C)CC4)cc3OC)nc2N1C1CCCC1
Method in brief: (§1)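 Values are thermal stability changes relative to control samples and are taken from duplicates. They are stated as log2 fold changes. Before quantification by TMTpro 16plex LC-MS/MS with equalised channel sums, K562 cells at 2×10^6 cells/mL were treated with 10 μM compound for 30 min, heated in aliquots for 3 min across 48°C-58°C, pooled, extracted in PBS with 0.5% NP-40 at 4°C, and centrifuged at 21,000xg for 90 min to give the soluble supernatant.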

By UniProt entry, the sequences of proteins in these tests, tags left out. Where a name states a change or a piece, a line headed by the entry shows the natural chain unless it says otherwise.
UniProt Q96S38: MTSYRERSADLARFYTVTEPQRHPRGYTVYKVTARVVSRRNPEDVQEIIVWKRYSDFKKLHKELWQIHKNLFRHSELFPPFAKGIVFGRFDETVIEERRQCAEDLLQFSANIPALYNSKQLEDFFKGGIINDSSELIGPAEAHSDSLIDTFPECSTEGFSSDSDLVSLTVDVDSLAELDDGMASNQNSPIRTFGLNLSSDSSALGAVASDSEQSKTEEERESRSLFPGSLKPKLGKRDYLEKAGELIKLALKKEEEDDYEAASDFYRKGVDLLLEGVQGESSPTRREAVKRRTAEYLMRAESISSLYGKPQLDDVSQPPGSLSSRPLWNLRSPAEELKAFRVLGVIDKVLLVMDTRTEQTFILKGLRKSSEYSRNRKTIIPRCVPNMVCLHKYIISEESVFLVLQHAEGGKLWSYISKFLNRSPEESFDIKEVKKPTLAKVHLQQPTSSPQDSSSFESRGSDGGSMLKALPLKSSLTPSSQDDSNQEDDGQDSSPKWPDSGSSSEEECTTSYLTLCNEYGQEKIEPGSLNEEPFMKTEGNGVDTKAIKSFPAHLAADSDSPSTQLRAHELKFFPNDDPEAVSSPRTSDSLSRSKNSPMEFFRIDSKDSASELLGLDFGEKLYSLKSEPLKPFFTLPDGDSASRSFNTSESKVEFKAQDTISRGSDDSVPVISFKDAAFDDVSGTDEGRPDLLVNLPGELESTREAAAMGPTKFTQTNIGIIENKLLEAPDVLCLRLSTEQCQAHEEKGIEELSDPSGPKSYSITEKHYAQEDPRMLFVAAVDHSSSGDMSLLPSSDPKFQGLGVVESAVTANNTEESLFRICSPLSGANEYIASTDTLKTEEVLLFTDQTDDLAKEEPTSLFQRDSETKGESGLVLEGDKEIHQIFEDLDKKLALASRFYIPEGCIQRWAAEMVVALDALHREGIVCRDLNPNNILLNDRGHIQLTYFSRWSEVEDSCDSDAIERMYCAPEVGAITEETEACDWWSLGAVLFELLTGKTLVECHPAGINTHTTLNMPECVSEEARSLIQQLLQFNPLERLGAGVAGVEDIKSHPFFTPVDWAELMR
UniProt O60942: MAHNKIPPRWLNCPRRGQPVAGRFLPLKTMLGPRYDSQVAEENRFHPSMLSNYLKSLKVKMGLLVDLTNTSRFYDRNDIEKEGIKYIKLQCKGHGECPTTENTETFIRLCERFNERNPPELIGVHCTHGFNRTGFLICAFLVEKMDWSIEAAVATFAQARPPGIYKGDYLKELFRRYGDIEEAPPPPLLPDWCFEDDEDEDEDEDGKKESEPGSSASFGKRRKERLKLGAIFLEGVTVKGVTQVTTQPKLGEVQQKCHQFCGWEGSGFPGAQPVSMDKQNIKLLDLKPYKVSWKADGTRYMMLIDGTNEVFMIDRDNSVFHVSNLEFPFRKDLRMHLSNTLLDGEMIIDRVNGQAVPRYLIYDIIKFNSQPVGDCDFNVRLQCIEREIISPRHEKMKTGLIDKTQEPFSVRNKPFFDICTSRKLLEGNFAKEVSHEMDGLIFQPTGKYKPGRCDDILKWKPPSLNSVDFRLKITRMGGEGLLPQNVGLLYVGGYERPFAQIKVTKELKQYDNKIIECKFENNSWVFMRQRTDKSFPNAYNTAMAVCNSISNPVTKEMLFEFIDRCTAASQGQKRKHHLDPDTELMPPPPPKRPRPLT
UniProt Q8IZ73: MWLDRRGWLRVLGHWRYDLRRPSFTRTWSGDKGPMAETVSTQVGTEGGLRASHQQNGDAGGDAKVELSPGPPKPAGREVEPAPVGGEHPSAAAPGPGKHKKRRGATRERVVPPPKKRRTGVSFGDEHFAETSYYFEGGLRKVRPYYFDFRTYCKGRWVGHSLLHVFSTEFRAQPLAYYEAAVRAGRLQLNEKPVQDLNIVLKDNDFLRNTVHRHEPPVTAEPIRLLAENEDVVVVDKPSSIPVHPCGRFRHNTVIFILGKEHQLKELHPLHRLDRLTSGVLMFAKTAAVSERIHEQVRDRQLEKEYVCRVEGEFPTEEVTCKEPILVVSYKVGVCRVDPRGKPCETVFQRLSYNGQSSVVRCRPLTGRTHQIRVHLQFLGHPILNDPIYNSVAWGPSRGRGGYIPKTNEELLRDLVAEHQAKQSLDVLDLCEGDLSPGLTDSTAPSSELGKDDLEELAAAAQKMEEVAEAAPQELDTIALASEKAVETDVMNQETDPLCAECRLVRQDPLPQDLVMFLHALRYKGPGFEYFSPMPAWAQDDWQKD
UniProt Q9H4P4: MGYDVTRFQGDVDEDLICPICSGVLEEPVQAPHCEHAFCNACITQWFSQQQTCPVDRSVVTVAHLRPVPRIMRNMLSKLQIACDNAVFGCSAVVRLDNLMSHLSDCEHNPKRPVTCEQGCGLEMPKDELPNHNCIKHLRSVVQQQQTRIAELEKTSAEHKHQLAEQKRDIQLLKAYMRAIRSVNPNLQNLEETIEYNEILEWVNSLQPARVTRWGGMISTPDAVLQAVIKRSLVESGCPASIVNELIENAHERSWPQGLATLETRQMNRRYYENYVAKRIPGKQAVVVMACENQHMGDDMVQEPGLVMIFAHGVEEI
UniProt Q92901: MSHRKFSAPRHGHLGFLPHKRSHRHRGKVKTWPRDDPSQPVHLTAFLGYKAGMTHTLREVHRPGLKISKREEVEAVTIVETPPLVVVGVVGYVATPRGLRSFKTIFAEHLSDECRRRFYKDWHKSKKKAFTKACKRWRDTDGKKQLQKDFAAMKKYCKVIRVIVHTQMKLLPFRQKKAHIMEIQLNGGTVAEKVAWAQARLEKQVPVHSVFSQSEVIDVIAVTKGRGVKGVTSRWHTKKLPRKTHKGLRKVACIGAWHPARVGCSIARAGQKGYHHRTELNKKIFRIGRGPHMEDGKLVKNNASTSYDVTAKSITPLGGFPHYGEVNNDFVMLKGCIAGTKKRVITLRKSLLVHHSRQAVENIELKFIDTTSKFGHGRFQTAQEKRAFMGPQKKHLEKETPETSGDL
UniProt P04844: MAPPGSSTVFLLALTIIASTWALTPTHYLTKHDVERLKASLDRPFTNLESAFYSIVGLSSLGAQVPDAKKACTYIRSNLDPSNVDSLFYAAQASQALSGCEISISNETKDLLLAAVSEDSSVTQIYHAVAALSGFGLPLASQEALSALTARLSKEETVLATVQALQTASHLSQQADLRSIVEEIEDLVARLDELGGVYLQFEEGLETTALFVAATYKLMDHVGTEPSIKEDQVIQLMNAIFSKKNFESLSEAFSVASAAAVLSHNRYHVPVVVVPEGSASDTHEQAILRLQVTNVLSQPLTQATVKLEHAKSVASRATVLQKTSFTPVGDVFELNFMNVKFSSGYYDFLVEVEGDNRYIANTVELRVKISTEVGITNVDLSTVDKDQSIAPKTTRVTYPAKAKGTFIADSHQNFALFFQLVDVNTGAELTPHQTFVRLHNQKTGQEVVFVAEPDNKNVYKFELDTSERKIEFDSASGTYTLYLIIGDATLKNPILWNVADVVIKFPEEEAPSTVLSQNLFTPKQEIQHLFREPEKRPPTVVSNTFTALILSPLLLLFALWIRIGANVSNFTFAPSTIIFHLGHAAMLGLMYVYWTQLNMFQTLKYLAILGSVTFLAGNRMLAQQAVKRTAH
UniProt P31350, whole entry, looked up: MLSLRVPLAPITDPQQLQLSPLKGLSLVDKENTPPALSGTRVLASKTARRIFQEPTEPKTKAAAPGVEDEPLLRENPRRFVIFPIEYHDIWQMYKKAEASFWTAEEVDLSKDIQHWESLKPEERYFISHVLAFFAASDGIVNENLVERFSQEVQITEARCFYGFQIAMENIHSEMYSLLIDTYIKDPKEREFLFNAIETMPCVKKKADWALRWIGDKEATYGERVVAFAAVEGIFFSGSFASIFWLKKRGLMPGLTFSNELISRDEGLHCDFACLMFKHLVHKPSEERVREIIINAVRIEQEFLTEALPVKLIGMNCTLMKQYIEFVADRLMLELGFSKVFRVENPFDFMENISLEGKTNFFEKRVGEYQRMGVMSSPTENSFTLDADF
UniProt O75818: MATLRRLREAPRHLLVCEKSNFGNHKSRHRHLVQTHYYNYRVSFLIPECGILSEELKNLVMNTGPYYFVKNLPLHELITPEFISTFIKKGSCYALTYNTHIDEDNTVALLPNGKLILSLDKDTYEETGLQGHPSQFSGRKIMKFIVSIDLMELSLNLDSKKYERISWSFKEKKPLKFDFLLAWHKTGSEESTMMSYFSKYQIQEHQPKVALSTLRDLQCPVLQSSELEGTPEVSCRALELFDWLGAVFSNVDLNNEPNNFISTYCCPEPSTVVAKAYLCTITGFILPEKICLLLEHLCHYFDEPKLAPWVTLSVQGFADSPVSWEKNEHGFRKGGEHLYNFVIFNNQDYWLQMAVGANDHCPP
UniProt Q86WX3: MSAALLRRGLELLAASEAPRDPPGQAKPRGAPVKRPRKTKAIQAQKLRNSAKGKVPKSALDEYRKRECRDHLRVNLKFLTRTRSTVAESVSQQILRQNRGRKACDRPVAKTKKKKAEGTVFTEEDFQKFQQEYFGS
UniProt O75695: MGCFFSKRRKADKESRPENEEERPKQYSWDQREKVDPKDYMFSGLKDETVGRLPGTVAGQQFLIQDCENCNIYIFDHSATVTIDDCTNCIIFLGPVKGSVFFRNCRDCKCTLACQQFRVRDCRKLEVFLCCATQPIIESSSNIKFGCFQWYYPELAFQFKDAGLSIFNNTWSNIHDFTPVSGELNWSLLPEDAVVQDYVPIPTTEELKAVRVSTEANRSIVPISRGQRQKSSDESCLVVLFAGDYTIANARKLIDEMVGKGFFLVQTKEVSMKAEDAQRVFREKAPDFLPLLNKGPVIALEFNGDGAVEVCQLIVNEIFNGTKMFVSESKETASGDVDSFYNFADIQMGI
UniProt P78345: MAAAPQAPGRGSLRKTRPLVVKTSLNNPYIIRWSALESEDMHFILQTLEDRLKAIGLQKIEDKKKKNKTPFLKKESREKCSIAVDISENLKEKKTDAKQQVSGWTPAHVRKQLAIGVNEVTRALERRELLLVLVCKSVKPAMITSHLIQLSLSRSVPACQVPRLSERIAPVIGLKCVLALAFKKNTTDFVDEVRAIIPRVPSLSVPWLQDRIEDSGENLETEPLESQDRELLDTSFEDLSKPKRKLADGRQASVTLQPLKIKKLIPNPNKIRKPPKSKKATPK
UniProt P04843: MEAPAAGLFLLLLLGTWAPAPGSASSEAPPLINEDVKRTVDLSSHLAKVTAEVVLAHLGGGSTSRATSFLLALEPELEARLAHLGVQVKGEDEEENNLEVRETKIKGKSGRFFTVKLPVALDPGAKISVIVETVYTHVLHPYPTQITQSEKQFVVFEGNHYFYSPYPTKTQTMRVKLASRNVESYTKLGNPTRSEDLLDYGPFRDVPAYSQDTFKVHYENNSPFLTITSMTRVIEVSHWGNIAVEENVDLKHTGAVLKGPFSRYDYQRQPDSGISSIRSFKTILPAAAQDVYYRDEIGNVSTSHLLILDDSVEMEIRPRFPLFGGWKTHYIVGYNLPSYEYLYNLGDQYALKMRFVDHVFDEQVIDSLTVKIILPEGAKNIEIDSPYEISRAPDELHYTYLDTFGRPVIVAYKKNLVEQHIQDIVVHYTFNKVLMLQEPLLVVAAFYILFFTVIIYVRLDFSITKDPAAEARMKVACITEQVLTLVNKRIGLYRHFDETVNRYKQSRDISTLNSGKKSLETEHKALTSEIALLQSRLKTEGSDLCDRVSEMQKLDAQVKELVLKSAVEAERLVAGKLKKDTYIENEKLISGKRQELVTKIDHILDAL
UniProt Q7LG56, whole entry, looked up: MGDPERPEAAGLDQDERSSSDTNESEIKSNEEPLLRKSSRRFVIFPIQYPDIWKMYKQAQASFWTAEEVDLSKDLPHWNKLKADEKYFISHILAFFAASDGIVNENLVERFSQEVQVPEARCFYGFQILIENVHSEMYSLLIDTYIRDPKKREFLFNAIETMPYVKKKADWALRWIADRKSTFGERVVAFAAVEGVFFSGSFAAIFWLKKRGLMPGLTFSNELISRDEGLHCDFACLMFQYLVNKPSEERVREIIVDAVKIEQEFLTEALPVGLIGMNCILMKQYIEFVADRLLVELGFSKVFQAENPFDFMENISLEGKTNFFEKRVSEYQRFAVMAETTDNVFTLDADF

[2] = compound: CC[C@@H]1C(=O)N(C)c2cnc(Nc3ccc(C(=O)N[C@H]4CC[C@H](N5CCN(CC6CC6)CC5)CC4)cc3OC)nc2N1C(C)C [volasertib]
Method in brief: as §1

[3] = compound: CC[C@H](C)N1C=C(C2=C(C=C(C=C21)C3=CN=C(C=C3)N4CCNCC4)C(=O)NCC5=C(C=C(NC5=O)C)C)C
Method in brief: as §1

[4] = compound: CC[C@H](C)[C@@H](C(=O)N[C@@H]([C@@H](C)O)C(=O)N[C@@H](CC(C)C)C(=O)[C@]1(CO1)C)NC(=O)[C@H]([C@@H](C)CC)N(C)C(=O)C [epoxomicin]
Method in brief: as §1

[5] = compound: CCn1c(C(=O)N(C2CC2)C2CC2)cc2c3c(ncn3C)c(Nc3cc(C)n(C)n3)nc21
Method in brief: as §1

[6] = compound: CCn1cc(-c2ccnc3[nH]c(-c4cccc(CN(C)C)c4)cc23)c(-c2ccc(NC(=O)N(C)C)cc2)n1
Method in brief: as §1

[7] = compound: CN(C)CC(=O)Nc1ccc2[nH]c(=O)c3ccccc3c2c1
Method in brief: as §1

[8] = compound: CN(CCOC1=CC=C(C=C1)C[C@H]2C(=O)NC(=O)S2)C3=CC=CC=N3 (racemic) [rosiglitazone]
Method in brief: as §1

[9] = compound: CN1C2=C(C3=C1C(=O)N(N=C3)CC4=CC(=CC=C4)N)SC(=C2)S(=O)C
Method in brief: as §1

[10] = compound: CN1CCC(CNc2ccc3ncc(-c4cccc(OC(F)(F)F)c4)n3n2)CC1
Method in brief: as §1

Measured: log2 fold change

RPL26L1 (UniProt Q9UNX3)
inactive: [1] 0.174 | [2] 0.531 | [3] 0.04 | [4] -0.329 | [5] -0.003 | [6] 0.201 | [7] -0.127 | [8] -0.135 | [9] 0.319 | [10] 0.298

RPS11 (UniProt P62280)
inactive: [1] 0.218 | [2] 0.576 | [3] 0.031 | [4] -0.337 | [5] 0.042 | [6] 0.152 | [7] -0.156 | [8] -0.113 | [9] 0.278 | [10] 0.207

RPS27 (UniProt P42677)
inactive: [1] 0.134 | [2] 0.223 | [3] 0.037 | [4] -0.144 | [5] -0.001 | [6] 0.029 | [7] -0.01 | [8] -0.008 | [9] 0.057 | [10] -0.075

RPS6KC1 (UniProt Q96S38)
inactive: [1] 0.126 | [2] -0.072 | [3] -0.02 | [4] -0.016 | [5] 0.02 | [6] -0.06 | [7] 0.032 | [8] 0.055 | [9] -0.283 | [10] 0

RNGTT (UniProt O60942)
inactive: [1] -0.054 | [2] -0.186 | [3] 0.019 | [4] 0.212 | [5] -0.03 | [6] -0.03 | [7] 0.012 | [8] 0.01 | [9] 0.005 | [10] 0.009

RPL27A (UniProt P46776)
inactive: [1] 0.195 | [2] 0.581 | [3] 0 | [4] -0.502 | [5] 0.01 | [6] 0.396 | [7] -0.184 | [8] -0.243 | [9] 0.441 | [10] 0.401

RPUSD2 (UniProt Q8IZ73)
inactive: [1] 0.039 | [2] 0.003 | [3] 0.01 | [4] -0.007 | [5] -0.017 | [6] -0.037 | [7] -0.007 | [8] 0.007 | [9] -0.012 | [10] 0.007

RNF41 (UniProt Q9H4P4)
inactive: [1] 0.044

RPL36A (UniProt P83881)
inactive: [1] 0.218 | [2] 0.536 | [3] -0.07 | [4] -0.27 | [5] 0.081 | [6] 0.308 | [7] -0.064 | [8] -0.263 | [9] 0.327 | [10] 0.321

RPL3L (UniProt Q92901)
inactive: [1] 0.305 | [2] 0.817 | [3] -0.002 | [4] -0.887 | [5] 0.127 | [6] 0.337 | [7] -0.304 | [8] -0.302 | [9] 0.516 | [10] 0.397

RPN2 (UniProt P04844)
inactive: [1] 0.02 | [2] -0.035 | [3] 0.016 | [4] 0.004 | [5] 0.009 | [6] 0.005 | [7] 0.005 | [8] 0.022 | [9] -0.006 | [10] 0.032

RPSA (UniProt P08865)
inactive: [1] 0.109 | [2] 0.243 | [3] 0.013 | [4] -0.038 | [5] -0.027 | [6] 0.038 | [7] -0.037 | [8] -0.006 | [9] 0.018 | [10] 0.013

RPS26 (UniProt P62854)
inactive: [1] 0.302 | [2] 0.506 | [3] -0.015 | [4] -0.294 | [5] 0.027 | [6] 0.231 | [7] -0.21 | [8] -0.193 | [9] 0.293 | [10] 0.195

RRM2 isoform 2 (UniProt P31350)
inactive: [1] 0.061 | [2] 0.075 | [3] -0.018 | [4] 0.077 | [5] 0.011 | [6] -0.04 | [7] -0.006 | [8] 0.012 | [9] -0.113 | [10] 0.001

RPL18 (UniProt Q07020)
inactive: [1] 0.264 | [2] 0.876 | [3] -0.039 | [4] -0.634 | [5] 0.09 | [6] 0.35 | [7] -0.293 | [8] -0.393 | [9] 0.608 | [10] 0.466

RPP40 (UniProt O75818)
inactive: [1] 0.124 | [2] 0.152 | [3] -0.006 | [4] -0.044 | [5] 0.042 | [6] 0.062 | [7] -0.023 | [8] -0.003 | [9] 0.063 | [10] 0.116

RPS19BP1 (UniProt Q86WX3)
inactive: [1] 0.148 | [2] 0.239 | [3] -0.052 | [4] -0.086 | [5] 0.192 | [6] 0.171 | [7] -0.101 | [8] 0.021 | [9] 0.211 | [10] 0.189

RPS17 (UniProt P08708)
inactive: [1] 0.101 | [2] 0.263 | [3] 0.028 | [4] -0.159 | [5] 0.02 | [6] 0.14 | [7] -0.048 | [8] -0.041 | [9] 0.149 | [10] 0.082

RP2 (UniProt O75695)
inactive: [1] 0.079 | [2] -0.08 | [3] 0.142 | [4] -0.023 | [5] 0.092 | [6] 0.055 | [7] -0.037 | [8] 0.026 | [9] -0.056 | [10] 0.28

RPL4 (UniProt P36578)
inactive: [1] 0.249 | [2] 0.844 | [3] 0.001 | [4] -0.726 | [5] 0.058 | [6] 0.3 | [7] -0.304 | [8] -0.32 | [9] 0.478 | [10] 0.408

RPL5 (UniProt P46777)
inactive: [1] 0.135 | [2] 0.318 | [3] 0.004 | [4] -0.254 | [5] -0.023 | [6] 0.146 | [7] -0.099 | [8] -0.111 | [9] 0.248 | [10] 0.212

Two neighbouring records out of the list so far:
RP2 (UniProt O75695)
inactive: [1] 0.079 | [2] -0.08 | [3] 0.142 | [4] -0.023 | [5] 0.092 | [6] 0.055 | [7] -0.037 | [8] 0.026 | [9] -0.056 | [10] 0.28

RPL4 (UniProt P36578)
inactive: [1] 0.249 | [2] 0.844 | [3] 0.001 | [4] -0.726 | [5] 0.058 | [6] 0.3 | [7] -0.304 | [8] -0.32 | [9] 0.478 | [10] 0.408

Continued.

RPL35 (UniProt P42766)
inactive: [1] 0.205 | [2] 0.531 | [3] -0.005 | [4] -0.366 | [5] 0.009 | [6] 0.241 | [7] -0.125 | [8] -0.16 | [9] 0.348 | [10] 0.242

RPL7A (UniProt P62424)
inactive: [1] 0.255 | [2] 0.799 | [3] -0.022 | [4] -0.762 | [5] 0.089 | [6] 0.309 | [7] -0.255 | [8] -0.315 | [9] 0.483 | [10] 0.496

RPL24 (UniProt P83731)
inactive: [1] 0.191 | [2] 0.464 | [3] 0.009 | [4] -0.375 | [5] 0.03 | [6] 0.168 | [7] -0.112 | [8] -0.19 | [9] 0.306 | [10] 0.224

RPP38 (UniProt P78345)
inactive: [1] 0.071 | [2] 0.111 | [3] 0.008 | [4] 0.017 | [5] -0.052 | [6] 0.035 | [7] -0.047 | [8] -0.009 | [9] 0.006 | [10] 0.058

RPN1 (UniProt P04843)
inactive: [1] -0.036 | [2] -0.048 | [3] 0.012 | [4] 0.03 | [5] 0.006 | [6] 0.001 | [7] -0.02 | [8] 0.022 | [9] -0.053 | [10] -0.03

RRM2B isoform 6 (UniProt Q7LG56)
inactive: [1] 0.018 | [2] -0.049 | [3] -0.026 | [4] -0.057 | [5] 0.025 | [6] -0.045 | [7] -0.058 | [8] 0.002 | [9] -0.099 | [10] 0

RPL10A (UniProt P62906)
inactive: [1] 0.275 | [2] 0.798 | [3] 0 | [4] -0.659 | [5] 0.109 | [6] 0.291 | [7] -0.286 | [8] -0.339 | [9] 0.546 | [10] 0.441

RPS23 (UniProt P62266)
inactive: [1] 0.214 | [2] 0.551 | [3] 0.009 | [4] -0.356 | [5] 0.004 | [6] 0.217 | [7] -0.153 | [8] -0.163 | [9] 0.333 | [10] 0.267

RPL39P5 (UniProt Q59GN2)
inactive: [1] 0.173 | [2] 0.389 | [3] -0.042 | [4] -0.229 | [5] 0.009 | [6] 0.18 | [7] -0.168 | [8] -0.185 | [9] 0.352 | [10] 0.281

RPL13 (UniProt P26373)
inactive: [1] 0.285 | [2] 0.744 | [3] -0.053 | [4] -0.635 | [5] 0.084 | [6] 0.461 | [7] -0.306 | [8] -0.239 | [9] 0.543 | [10] 0.394

From the supplement of paper PMC10849652
